Screening data, single-dose tests

Data taken from ChEMBL document CHEMBL3988442, “University of Dundee, Small-Polar-MMV Screening Library” (2021).

A: 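Growth of Mycobacterium tuberculosis over 3 days (7H9 medium with glucose and tyloxapol); the read-out is not stated. Concentration: 50 µM. Higher reads as more growth inhibition (inferred: compounds with an IC50 in retests scored well above the rest). About 69,000 compounds were tested under these conditions; 1.1% (about 760) showed 50% or more at least once.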
B: 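Whole-cell growth test on Mycobacterium tuberculosis, read after 4 days in a medium based on cholesterol and the lipid DPPC; the read-out is not stated. Compounds at 50 µM. Higher reads as more growth inhibition (inferred: compounds with an IC50 in retests scored well above the rest). Size under these conditions: about 69,000 compounds, about 370 of them at 50% or above in at least one test.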

Values are the deposited “Percent Effect”, in %.
The controls that fix the scale are not given in the record; negative values are as filed.
The compounds are a random part of those screened.
Two or more numbers in one place are separate tests of the same structure; such repeats can differ widely.

| compound | A | B |
|---|---|---|
| `COc1ccc(Oc2ccc(CNC(=O)C(C)n3cncn3)cn2)cc1` (stereo unspecified) | -5.913 and -8.618 | -2.843 |
| `Cc1nnc(NC(=O)NC(C)Cn2cccn2)s1` (stereo unspecified) | 0.07239 | -2.38 |
| `COc1ccc(S(N)(=O)=O)cc1C(=O)N(C)Cc1cc(C)on1` | -48.25 | -9.828 |
| `O=C(CSc1ccc(F)cc1F)NS(=O)(=O)c1ccc2c(c1)OCCO2` | 14.19 | -5.136 |
| `COc1cc(CN(C)C(=O)NC2CC2)ccc1SC` | -14.08 | -7.34 |
| `N#Cc1cc(S(N)(=O)=O)ccc1NC1CCc2ccc(F)cc21` (stereo unspecified) | 19.94 | -1.523 |
| `COCCN(CCOC)Cc1nc2c(cnn2C)c(=O)[nH]1` | 14.82 | -34.44 |
| `CCc1nnsc1C(=O)N1CCCN(Cc2ccc(C)cc2)CC1` | 15.5 | 15.91 |
| `Fc1ccc(CN2CCCC(c3cc4ncccc4[nH]3)C2)cc1` (stereo unspecified) | 18.87 | 44.6 and 53.67 |
| `COCCC1(C(=O)O)CCCN(Cc2cc3c(cc2C)OCO3)C1` (stereo unspecified) | -4.946 | -20.67 |
| `Cc1ccoc1C(=O)NC1CCN(Cc2ccccc2C#N)CC1` | -6.589 | -9.517 |
| `COc1ncccc1NC(=O)C1CCOCC1` | 1.497 | -17.05 |
| `[H][C@]12CC[C@]([H])(CN(C(=O)c3ccc(N(C)CCO)cc3)C1)N(CCC)C2` | -28.66 | -12.28 |
| `CC(=O)Nc1ncc(S(=O)(=O)Nc2ccc(F)cc2F)s1` | 0.7651 | -14.05 |
| `Cc1nn(CCCNC(=O)C2CCN(S(C)(=O)=O)CC2)cc1Cl` | -0.569 and -15.42 | -15.83 |
| `CCn1nc(C)c2nc(C(C)C)nc(N3CCCC3)c21` | 18.59 | -34.47 |
| `[H][C@@]12COC[C@]1(COC)CN(Cc1cccnc1OC)C2` | 19.76 | 15.07 |
| `O=C(NCc1ccco1)c1cc(N2CC[C@@H](O)C2)ccn1` | -8.233 | 5.631 |
| `O=C(NCC(CO)Cc1ccc(Cl)cc1)c1ccncc1Cl` (stereo unspecified) | 72.88 and 5.181 | 4.433 |
| `COCCOC1CCN(C(C(=O)O)c2c(Cl)cccc2OC)CC1` (stereo unspecified) | 12.69 and -5.177 | 12.91 |
| `Cc1nc2c(C#N)cnn2c(C)c1CCC(=O)N(C)C1CC1` | 14.7 and -1.523 | 13.46 |
| `CC(C)(C)OCCN(Cc1cccc(O)c1)C1CCC(O)CC1` (stereo unspecified) | -10.72 and -11.38 | 0.7187 and -9.149 |
| `Cn1ncc2c1C(COCC1CC1)CN(C(=O)c1ccoc1)C2` (stereo unspecified) | -22.58 | -16.02 |
| `[H][C@@]12CCN(C(=O)CC3Cc4ccccc4C3)C[C@]1([H])OCCNC2=O` | -1.864 | -22.39 |
| `CCCc1noc(C2CCN(C(=O)C3CCCO3)CC2)n1` (stereo unspecified) | -0.553 and -23.37 | -6.664 |
| `Cc1cccc(CNc2nnc(C(C)C)o2)c1` | 27.46 | 14.95 |
| `CCOCc1nc(-c2ccc(F)cc2Cl)n(C2CCN(C)CC2)n1` | -13.27 and 11.81 | 0.04193 |
| `Cc1ccnc(NS(=O)(=O)c2cc(C(N)=O)n(C)c2)c1` | 6.315 | -4.371 and 17.57 |
| `O=C(NC1=NCCCN1c1ccc(Cl)cc1)c1cccc(Cl)c1` | -68.83 | -29.83 |
| `Cc1csc(C(=O)N2CCC(S(C)(=O)=O)CC2)c1` | 34.88 | -6.105 |
| `CN(C)S(=O)(=O)N1CCC(C(O)c2ccc(Cl)cc2)CC1` (stereo unspecified) | 13.56 and 10.15 | 21.16 |
| `O=C(Cc1ccccn1)N1CCN(C(=O)CC2CCCCC2)CC1` | 5.014 | -7.221 |
| `Cc1cc(NC(=O)c2ccc(F)cc2F)n(C)n1` | 14.45 | -35.03 |
| `O=C(O)C(F)(F)F.[H][C@]12CN(C)C[C@@]1(C(=O)O)CCCN(C(=O)NCc1ccccc1)C2` | -5.384 and -17.41 | -16.94 |
| `O=C(CSC1CCc2ccccc2NC1=O)NCc1ccccc1` (stereo unspecified) | -33.33 | 6.779 |
| `Cc1cccc(NC(=O)N2CCC3(CCC(C(=O)N(C)C)O3)CC2)c1` (stereo unspecified) | 10.35 | -4.724 |
| `COc1ccc(NC(=O)N2CCCC2c2ccco2)cc1OC` (stereo unspecified) | -4.208 | -1.647 |
| `O=C(Nc1cn[nH]c1)N1CCN(CCSc2ccccc2)CC1` | -4.407 and 20.1 | 23.55 |
| `Cc1ccc2nc(C3CCCN3C(=O)c3cc(=O)[nH]c(=O)[nH]3)[nH]c2c1` (stereo unspecified) | -26.97 | -12.61 |
| `Cc1cnccc1-c1cnn(CCNC(=O)c2ccncc2)c1C1CC1.Cl` | -38.24 | -8.626 |
| `Cc1nn(C)cc1C(=O)NC(CC(C)C)C(=O)Nc1cc[nH]n1` (stereo unspecified) | -22.25 | -19.04 |
| `CCc1nnc2n1CCN(C(=O)c1ccc3cc[nH]c3c1)C2` | 20.17 | 5.961 |
| `O=C(O)C(F)(F)F.O=C(O)C(F)(F)F.O=C(O)C(F)(F)F.[H][C@@]12CCN(Cc3ccc(C)o3)C[C@]1([H])[C@@H](CN1CCN(C)CC1)OC2` | -8.925 | -8.22 |
| `CN(Cc1cccnc1)C1CC2(CCN(c3ncccn3)CC2)C1.O=C(O)C(F)(F)F.O=C(O)C(F)(F)F` | -1.968 | -10.31 and 2.624 |

2 of the entries, repeated:

compound	A	B
N#Cc1cc(S(N)(=O)=O)ccc1NC1CCc2ccc(F)cc21 (stereo unspecified)	19.94	-1.523
CC(=O)Nc1ncc(S(=O)(=O)Nc2ccc(F)cc2F)s1	0.7651	-14.05